{"source": "PubChem BioAssay AID743454 (Peter MacCallum Cancer Centre, 2014)", "test": "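Search for knock-downs that restore vorinostat killing in resistant colon cancer cells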 (primary screen)", "system": "human HCT116-VR colon cancer cells, selected for vorinostat resistance", "reagent": "siRNA pool against human genes, 40 nM siRNA pool", "duration": "vorinostat for 24 h, read-out about 72 h after transfection", "treatment": "vorinostat at 2.5 µM final", "measurement": "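Two measures, CellTiter-Fluor viability and luminescent caspase 3/7 activity, each as fold change against same-plate mock wells, mean of duplicates, then screen-wide robust z-score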", "direction": "viability robust z-score: higher = more viable cells than screen typical; caspase robust z-score: higher = more caspase 3/7 activity than screen typical", "call rule": "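a knock-down is a hit when classed RV1 or RV2 for lowered viability, or CA1 or CA2 for caspase activation; those lethal without drug were dropped; hits were retested singly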", "note": "Here is a random part of about 18,000 reagents. 450 of them (2.5%) were called active. 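Single biological run; no consistent viability z cut-off exists, so the class columns, not z-scores, define the calls.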 Entries without a mark were called inactive."}
{"Gene": "FOLR2 (folate receptor beta)", "viability hit class": "no change", "caspase hit class": "no change", "viability robust z-score": -0.92, "caspase robust z-score": 0.4}
{"Gene": "SLC22A9", "viability hit class": "no change", "caspase hit class": "no change", "viability robust z-score": -0.68, "caspase robust z-score": -0.31}
{"Gene": "ALDH1L2 (aldehyde dehydrogenase 1 family member L2)", "viability hit class": "no change", "caspase hit class": "no change", "viability robust z-score": -0.61, "caspase robust z-score": 1.63}
{"Gene": "OR8K1 (olfactory receptor family 8 subfamily K member 1)", "viability hit class": "no change", "caspase hit class": "no change", "viability robust z-score": 0.2, "caspase robust z-score": 4.87}
{"Gene": "EML4 (EMAP like 4)", "viability hit class": "no change", "caspase hit class": "no change", "viability robust z-score": 2.08, "caspase robust z-score": -0.42}
{"Gene": "OSBPL2 (oxysterol binding protein like 2)", "viability hit class": "no change", "caspase hit class": "no change", "viability robust z-score": 1.38, "caspase robust z-score": -0.38}
{"Gene": "SRD5A2 (steroid 5 alpha-reductase 2)", "viability hit class": "no change", "caspase hit class": "no change", "viability robust z-score": -2.51, "caspase robust z-score": 2.94}
{"Gene": "TCF19 (transcription factor 19)", "viability hit class": "no change", "caspase hit class": "no change", "viability robust z-score": 1.93, "caspase robust z-score": 0.41}
{"Gene": "IPO9 (importin 9)", "viability hit class": "no change", "caspase hit class": "no change", "viability robust z-score": 0.38, "caspase robust z-score": -1.32}
{"Gene": "SMAD6 (SMAD family member 6)", "viability hit class": "no change", "caspase hit class": "no change", "viability robust z-score": 1.44, "caspase robust z-score": 0.13}
{"Gene": "CCNL2 (cyclin L2)", "viability hit class": "no change", "caspase hit class": "no change", "viability robust z-score": 0.66, "caspase robust z-score": -0.64}
{"Gene": "HSPB2 (heat shock protein family B (small) member 2)", "viability hit class": "no change", "caspase hit class": "no change", "viability robust z-score": -0.4, "caspase robust z-score": -0.5}
{"Gene": "IFNB1 (interferon beta 1)", "viability hit class": "no change", "caspase hit class": "no change", "viability robust z-score": -0.17, "caspase robust z-score": 2.83}
{"Gene": "NBR1 (NBR1 autophagy cargo receptor)", "viability hit class": "no change", "caspase hit class": "no change", "viability robust z-score": -0.55, "caspase robust z-score": 0.73}
{"Gene": "HCAR3 (hydroxycarboxylic acid receptor 3)", "viability hit class": "no change", "caspase hit class": "no change", "viability robust z-score": 0.38, "caspase robust z-score": 1.75}
{"Gene": "PPP1R16B (protein phosphatase 1 regulatory subunit 16B)", "viability hit class": "no change", "caspase hit class": "no change", "viability robust z-score": 0.55, "caspase robust z-score": 0.68}
{"Gene": "LNX2 (ligand of numb-protein X 2)", "viability hit class": "no change", "caspase hit class": "no change", "viability robust z-score": 0.04, "caspase robust z-score": -0.62}
{"Gene": "DLK2 (delta like non-canonical Notch ligand 2)", "viability hit class": "no change", "caspase hit class": "no change", "viability robust z-score": -1.27, "caspase robust z-score": 1.15}
{"Gene": "KLHDC8A (kelch domain containing 8A)", "viability hit class": "no change", "caspase hit class": "no change", "viability robust z-score": -0.06, "caspase robust z-score": -0.38}
{"Gene": "CNNM1", "viability hit class": "no change", "caspase hit class": "no change", "viability robust z-score": -0.39, "caspase robust z-score": 3.7}
{"Gene": "HARS2 (histidyl-tRNA synthetase 2, mitochondrial)", "viability hit class": "no change", "caspase hit class": "no change", "viability robust z-score": -0.12, "caspase robust z-score": 0}
{"Gene": "SESN1 (sestrin 1)", "viability hit class": "no change", "caspase hit class": "no change", "viability robust z-score": 1.16, "caspase robust z-score": -0.79}
{"Gene": "DYNLRB1 (dynein light chain roadblock-type 1)", "viability hit class": "no change", "caspase hit class": "no change", "viability robust z-score": -0.21, "caspase robust z-score": -0.31}
{"Gene": "MBNL2 (muscleblind like splicing regulator 2)", "viability hit class": "no change", "caspase hit class": "no change", "viability robust z-score": 0, "caspase robust z-score": 1.21}
{"Gene": "IGFL2 (IGF like family member 2)", "viability hit class": "no change", "caspase hit class": "no change", "viability robust z-score": 0.37, "caspase robust z-score": 3.37}
{"Gene": "TMEM140 (transmembrane protein 140)", "viability hit class": "no change", "caspase hit class": "no change", "viability robust z-score": 1.1, "caspase robust z-score": -0.82}
{"Gene": "GDPD1 (glycerophosphodiester phosphodiesterase domain containing 1)", "viability hit class": "no change", "caspase hit class": "no change", "viability robust z-score": 0.21, "caspase robust z-score": 0.38}

3 entries from above, arranged by “caspase robust z-score”, descending.
{"Gene": "SRD5A2 (steroid 5 alpha-reductase 2)", "viability hit class": "no change", "caspase hit class": "no change", "viability robust z-score": -2.51, "caspase robust z-score": 2.94}
{"Gene": "TCF19 (transcription factor 19)", "viability hit class": "no change", "caspase hit class": "no change", "viability robust z-score": 1.93, "caspase robust z-score": 0.41}
{"Gene": "OSBPL2 (oxysterol binding protein like 2)", "viability hit class": "no change", "caspase hit class": "no change", "viability robust z-score": 1.38, "caspase robust z-score": -0.38}
